Results deposited as PubChem BioAssay AID1259254 (NCATS, 2017)
The deposit covers about 59,000 reagents; this is a random part of them. About 1,550 of them (2.6%) were called active. 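G2 share is only a proxy for re-replication; each gene was hit by three separate siRNAs, and active genes were retested.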 Reagents against one gene are numbered here. Not all columns of the deposit are shown. The record does not give: the amount of reagent.

Assay: 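Finding genes that stop cells copying their DNA twice in one cycle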 (primary screen)
Cells: human HCT116 colorectal cancer cells
Reagents: single siRNA against human genes
Time to read-out: 3 days
Read-out: 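Nuclei stained with Hoechst and imaged; cell-cycle phase assigned by DNA content; G2 share scaled per plate, non-targeting siRNA 0%, GMNN siRNA 100%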
Direction: G2 robust z-score: higher = more G2 cells, more excess DNA replication
Hit rule: 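Active siRNAs have a G2 robust z of 5 or more median absolute deviations over the median, which in these data means about 38% or higher of GMNN control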

Against CENPV (GeneID 201161) #1, the entry reads G2 robust z-score 0.406; inactive. With knock-down of CENPV (GeneID 201161) #2 the results were G2 robust z-score -0.426; inactive. Against CENPV (GeneID 201161) #3, the entry reads G2 robust z-score 0.0707; inactive. Against SMUG1 (GeneID 23583) #1 the deposit lists G2 robust z-score 3.81; inactive. With knock-down of SMUG1 (GeneID 23583) #2, the record shows G2 robust z-score -0.605; inactive. After knock-down of SMUG1 (GeneID 23583) #3, the screen gave G2 robust z-score -0.468; inactive.

For CSMD1 (GeneID 64478) #1, the entry reads G2 robust z-score -0.721; inactive. For CSMD1 (GeneID 64478) #2, the values are G2 robust z-score -0.964; inactive. After knock-down of CSMD1 (GeneID 64478) #3 the results were G2 robust z-score 0.0715; inactive. SNAPC1 (GeneID 6617) #1 gave G2 robust z-score 0.248; inactive. With knock-down of SNAPC1 (GeneID 6617) #2 the results were G2 robust z-score -1.02; inactive. Knock-down of SNAPC1 (GeneID 6617) #3 gave: G2 robust z-score 0.53; inactive.
